Source: publication doi:10.1101/2021.04.12.439405 (bioRxiv, 2021)
Substitutions are numbered along the chain they refer to. These are yes or no findings as the source states them, for the method shown. Some entries that bind do so weakly or less than the wild type.

Key:
[1] = molecular target: T1, MukB^KRK (K1114E, R1122E and K1125E) (E. coli, UniProt P22523 1-1486, K1114E | R1122E | K1125E); assay: co-purification
T1 sequence (looked up): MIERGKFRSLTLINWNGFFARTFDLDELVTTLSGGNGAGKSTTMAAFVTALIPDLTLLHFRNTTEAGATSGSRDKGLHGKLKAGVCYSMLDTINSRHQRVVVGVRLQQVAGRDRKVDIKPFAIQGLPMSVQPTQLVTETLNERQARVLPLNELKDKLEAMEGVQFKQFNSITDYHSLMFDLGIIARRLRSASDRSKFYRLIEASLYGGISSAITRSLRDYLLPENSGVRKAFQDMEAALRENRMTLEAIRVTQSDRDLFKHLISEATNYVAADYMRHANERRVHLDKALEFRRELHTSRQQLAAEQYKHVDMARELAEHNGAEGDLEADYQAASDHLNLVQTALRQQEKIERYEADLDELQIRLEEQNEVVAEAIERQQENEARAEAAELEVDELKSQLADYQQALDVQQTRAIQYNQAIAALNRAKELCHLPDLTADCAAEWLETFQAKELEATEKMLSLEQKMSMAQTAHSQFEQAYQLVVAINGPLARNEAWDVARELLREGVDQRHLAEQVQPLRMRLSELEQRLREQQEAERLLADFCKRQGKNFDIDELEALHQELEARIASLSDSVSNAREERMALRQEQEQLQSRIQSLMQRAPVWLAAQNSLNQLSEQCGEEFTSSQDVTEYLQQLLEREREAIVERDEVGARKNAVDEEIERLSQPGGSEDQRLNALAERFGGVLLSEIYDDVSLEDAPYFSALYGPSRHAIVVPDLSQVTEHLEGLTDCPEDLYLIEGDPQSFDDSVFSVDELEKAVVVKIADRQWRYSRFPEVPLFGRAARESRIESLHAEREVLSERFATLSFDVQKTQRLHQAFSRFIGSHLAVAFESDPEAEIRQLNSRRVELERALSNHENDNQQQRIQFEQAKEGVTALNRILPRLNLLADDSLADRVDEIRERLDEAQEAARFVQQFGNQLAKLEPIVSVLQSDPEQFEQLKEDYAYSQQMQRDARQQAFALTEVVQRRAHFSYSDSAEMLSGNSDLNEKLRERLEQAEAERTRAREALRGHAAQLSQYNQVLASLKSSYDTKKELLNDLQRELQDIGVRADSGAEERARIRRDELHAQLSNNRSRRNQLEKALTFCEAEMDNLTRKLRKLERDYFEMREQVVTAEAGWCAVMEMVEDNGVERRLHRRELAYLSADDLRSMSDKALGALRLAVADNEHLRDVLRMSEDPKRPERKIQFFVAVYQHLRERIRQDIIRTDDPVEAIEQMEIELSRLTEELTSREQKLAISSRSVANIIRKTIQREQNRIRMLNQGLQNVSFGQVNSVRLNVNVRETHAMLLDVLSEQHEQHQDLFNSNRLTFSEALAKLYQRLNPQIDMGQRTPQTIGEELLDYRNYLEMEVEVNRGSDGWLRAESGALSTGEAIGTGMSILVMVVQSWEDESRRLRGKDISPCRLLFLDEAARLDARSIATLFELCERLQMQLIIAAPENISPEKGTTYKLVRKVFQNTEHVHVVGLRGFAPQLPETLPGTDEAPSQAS

[2] = molecular target: T2, MukB^V1124E (E. coli) (UniProt P22523); assay: co-purification
T2 sequence: T1 sequence (looked up) with E1114K, E1122R, V1124E, E1125K

**Q.** “Acyl Carrier Protein (AcpP), co-purified with MukB proteins (from UniProt P0A6A8 1-78)” was tested. Which binding [1] did it give?
**A.** The binding was “no binding”.

**Q.** What about the binding [2] of the same substance?
**A.** The binding was “binds”.
